Results from the supplement of paper PMC10849652.
The other results are listed elsewhere or left out.

The chains behind the UniProt entries cited, without tags or fusion partners. Where a name states a change or a piece, a line headed by the entry shows the natural chain unless it says otherwise.
UniProt O60671: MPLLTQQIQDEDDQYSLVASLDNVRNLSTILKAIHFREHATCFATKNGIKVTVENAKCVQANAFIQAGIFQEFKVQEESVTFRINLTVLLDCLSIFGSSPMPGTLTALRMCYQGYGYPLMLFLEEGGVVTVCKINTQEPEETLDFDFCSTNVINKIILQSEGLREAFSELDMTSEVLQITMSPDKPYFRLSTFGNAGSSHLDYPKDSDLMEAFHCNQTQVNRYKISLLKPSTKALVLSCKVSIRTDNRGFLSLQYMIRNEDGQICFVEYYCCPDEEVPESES
UniProt Q53S08: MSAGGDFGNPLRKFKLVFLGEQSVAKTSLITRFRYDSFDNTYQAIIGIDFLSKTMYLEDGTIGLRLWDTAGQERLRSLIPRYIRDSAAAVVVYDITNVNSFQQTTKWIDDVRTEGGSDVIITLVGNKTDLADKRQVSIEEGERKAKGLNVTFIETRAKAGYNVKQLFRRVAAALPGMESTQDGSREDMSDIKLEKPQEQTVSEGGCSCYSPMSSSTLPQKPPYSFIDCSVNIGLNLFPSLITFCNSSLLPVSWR
UniProt P51148: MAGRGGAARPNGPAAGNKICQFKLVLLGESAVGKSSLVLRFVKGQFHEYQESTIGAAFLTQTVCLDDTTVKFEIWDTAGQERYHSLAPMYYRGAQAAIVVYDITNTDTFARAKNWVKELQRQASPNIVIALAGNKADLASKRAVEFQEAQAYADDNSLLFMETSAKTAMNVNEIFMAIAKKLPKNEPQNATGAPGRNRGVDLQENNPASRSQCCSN
UniProt Q09028, whole entry, looked up: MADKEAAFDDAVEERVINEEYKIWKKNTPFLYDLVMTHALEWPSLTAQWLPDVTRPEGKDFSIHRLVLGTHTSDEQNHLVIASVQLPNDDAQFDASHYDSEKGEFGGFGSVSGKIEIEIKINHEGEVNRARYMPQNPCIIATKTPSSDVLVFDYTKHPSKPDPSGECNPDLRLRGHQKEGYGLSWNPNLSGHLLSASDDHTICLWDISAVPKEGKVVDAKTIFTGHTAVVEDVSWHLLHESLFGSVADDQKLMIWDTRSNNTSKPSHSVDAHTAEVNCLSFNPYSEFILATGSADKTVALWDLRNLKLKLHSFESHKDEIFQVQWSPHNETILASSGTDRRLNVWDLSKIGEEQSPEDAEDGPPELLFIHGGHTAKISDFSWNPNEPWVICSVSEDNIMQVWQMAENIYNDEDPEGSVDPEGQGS
UniProt Q8TDY2, whole entry, looked up: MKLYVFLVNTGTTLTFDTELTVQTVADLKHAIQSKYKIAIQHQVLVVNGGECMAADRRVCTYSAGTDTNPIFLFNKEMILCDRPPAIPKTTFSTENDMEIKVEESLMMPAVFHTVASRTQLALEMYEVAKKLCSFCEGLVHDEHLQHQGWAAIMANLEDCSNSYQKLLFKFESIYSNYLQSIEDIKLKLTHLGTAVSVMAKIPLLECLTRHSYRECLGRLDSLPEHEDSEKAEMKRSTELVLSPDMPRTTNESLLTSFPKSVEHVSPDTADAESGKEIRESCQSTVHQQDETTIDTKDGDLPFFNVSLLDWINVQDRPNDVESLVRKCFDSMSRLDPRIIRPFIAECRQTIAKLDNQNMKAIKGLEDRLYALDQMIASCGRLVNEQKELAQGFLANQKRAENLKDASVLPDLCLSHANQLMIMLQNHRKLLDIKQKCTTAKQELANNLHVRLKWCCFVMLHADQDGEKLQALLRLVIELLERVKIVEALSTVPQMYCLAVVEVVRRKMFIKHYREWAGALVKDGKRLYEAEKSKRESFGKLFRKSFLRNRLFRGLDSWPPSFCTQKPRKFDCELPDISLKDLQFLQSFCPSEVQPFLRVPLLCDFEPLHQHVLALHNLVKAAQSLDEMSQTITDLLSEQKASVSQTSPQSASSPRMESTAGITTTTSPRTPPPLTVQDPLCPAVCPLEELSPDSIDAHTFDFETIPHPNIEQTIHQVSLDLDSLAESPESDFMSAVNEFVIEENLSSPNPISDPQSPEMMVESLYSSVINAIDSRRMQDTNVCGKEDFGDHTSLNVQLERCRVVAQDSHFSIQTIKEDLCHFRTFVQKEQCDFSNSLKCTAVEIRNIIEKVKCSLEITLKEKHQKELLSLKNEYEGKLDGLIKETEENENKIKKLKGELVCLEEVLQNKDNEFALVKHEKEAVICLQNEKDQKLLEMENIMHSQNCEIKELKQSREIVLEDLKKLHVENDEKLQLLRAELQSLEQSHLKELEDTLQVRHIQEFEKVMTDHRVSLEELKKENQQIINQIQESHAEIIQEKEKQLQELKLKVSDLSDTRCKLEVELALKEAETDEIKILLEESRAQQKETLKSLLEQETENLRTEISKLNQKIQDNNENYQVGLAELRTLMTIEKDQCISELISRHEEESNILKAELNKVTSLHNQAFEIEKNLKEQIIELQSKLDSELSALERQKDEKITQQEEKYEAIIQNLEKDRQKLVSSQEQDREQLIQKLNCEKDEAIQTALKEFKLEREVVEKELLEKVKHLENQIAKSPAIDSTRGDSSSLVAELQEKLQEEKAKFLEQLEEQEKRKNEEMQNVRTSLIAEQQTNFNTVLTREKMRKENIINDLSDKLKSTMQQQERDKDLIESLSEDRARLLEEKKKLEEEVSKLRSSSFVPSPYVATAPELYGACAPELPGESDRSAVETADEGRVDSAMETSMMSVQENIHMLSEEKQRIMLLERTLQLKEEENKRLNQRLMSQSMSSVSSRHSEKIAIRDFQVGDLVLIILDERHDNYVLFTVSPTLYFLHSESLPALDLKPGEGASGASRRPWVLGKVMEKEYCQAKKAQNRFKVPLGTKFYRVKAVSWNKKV
UniProt P43487, whole entry, looked up: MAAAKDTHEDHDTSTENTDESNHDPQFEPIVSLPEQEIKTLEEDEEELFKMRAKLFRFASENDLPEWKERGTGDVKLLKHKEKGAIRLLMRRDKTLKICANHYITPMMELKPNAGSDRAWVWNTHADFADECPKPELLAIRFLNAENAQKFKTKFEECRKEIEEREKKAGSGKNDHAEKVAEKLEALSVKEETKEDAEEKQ
UniProt Q13636: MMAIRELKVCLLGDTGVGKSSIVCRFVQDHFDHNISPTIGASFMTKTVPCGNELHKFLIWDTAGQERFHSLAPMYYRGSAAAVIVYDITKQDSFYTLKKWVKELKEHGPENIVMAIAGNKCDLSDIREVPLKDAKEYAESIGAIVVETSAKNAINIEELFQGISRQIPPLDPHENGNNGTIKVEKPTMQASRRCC
UniProt P11234: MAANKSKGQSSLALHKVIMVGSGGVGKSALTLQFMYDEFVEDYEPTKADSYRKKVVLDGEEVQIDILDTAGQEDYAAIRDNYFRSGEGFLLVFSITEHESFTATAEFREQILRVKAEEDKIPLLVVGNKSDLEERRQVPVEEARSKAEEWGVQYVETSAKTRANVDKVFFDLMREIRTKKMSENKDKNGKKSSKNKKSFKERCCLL
UniProt P62491: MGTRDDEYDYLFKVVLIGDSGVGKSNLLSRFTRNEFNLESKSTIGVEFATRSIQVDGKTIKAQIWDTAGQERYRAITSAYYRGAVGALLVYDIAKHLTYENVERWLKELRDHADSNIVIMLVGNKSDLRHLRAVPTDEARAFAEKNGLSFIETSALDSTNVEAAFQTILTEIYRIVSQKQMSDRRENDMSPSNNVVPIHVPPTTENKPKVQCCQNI
UniProt P20336: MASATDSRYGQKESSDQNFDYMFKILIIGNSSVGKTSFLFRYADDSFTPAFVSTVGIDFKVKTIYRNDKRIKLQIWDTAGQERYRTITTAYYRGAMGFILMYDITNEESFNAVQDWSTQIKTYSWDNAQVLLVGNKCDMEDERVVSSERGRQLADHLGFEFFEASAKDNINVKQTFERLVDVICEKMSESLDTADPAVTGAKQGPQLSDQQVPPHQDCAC
UniProt P53611: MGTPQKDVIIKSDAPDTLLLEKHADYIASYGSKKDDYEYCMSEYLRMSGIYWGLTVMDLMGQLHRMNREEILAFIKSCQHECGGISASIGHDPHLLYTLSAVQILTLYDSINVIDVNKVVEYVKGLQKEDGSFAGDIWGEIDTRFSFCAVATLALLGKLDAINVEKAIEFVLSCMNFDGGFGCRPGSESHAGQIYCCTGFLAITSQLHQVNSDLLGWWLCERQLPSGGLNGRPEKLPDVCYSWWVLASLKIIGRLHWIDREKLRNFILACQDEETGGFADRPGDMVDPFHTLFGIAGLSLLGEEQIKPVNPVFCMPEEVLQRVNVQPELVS
UniProt P62834: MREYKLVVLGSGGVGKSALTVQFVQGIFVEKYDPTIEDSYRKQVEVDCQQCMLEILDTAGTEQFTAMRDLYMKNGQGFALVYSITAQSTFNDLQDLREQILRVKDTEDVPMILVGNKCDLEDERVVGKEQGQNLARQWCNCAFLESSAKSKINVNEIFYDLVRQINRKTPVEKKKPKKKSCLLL
UniProt P52306: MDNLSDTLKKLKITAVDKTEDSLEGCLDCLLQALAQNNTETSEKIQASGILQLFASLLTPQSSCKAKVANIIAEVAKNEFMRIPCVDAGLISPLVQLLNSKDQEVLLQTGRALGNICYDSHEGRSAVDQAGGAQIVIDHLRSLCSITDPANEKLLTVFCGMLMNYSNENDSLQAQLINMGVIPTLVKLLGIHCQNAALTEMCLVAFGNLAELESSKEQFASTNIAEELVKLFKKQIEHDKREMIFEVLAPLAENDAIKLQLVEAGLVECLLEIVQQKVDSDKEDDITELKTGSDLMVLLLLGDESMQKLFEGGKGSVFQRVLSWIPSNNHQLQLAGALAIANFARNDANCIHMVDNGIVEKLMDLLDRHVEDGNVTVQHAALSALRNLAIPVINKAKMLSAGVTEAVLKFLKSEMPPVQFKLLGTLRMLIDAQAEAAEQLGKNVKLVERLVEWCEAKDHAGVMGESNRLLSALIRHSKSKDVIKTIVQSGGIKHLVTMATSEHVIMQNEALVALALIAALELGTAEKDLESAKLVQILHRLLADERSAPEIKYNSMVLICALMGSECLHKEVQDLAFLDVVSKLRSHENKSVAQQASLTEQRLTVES
UniProt Q96S59, whole entry, looked up: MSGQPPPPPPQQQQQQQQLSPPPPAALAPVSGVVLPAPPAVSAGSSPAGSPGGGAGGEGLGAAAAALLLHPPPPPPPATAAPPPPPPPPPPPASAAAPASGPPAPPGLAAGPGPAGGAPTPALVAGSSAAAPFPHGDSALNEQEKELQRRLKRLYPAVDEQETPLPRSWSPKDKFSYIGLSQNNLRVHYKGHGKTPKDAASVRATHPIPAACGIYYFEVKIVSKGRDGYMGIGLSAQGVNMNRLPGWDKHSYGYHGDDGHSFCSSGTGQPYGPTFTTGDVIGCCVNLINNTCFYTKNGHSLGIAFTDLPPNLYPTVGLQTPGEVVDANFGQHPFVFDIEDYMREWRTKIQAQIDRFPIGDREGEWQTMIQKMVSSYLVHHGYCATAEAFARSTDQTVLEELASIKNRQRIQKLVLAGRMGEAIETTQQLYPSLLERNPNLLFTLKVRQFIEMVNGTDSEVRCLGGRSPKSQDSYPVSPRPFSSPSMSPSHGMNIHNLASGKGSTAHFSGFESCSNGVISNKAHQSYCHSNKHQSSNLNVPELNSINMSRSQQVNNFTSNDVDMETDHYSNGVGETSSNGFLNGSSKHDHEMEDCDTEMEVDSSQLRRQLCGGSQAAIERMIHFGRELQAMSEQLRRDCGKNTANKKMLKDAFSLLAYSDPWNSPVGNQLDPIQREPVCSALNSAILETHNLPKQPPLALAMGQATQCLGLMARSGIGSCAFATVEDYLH
UniProt Q92930: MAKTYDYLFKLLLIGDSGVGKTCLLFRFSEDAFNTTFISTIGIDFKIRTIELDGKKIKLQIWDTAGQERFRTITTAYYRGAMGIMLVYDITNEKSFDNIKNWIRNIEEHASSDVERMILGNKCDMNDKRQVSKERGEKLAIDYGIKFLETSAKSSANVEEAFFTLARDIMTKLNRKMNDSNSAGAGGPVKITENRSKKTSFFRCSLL
UniProt P51151: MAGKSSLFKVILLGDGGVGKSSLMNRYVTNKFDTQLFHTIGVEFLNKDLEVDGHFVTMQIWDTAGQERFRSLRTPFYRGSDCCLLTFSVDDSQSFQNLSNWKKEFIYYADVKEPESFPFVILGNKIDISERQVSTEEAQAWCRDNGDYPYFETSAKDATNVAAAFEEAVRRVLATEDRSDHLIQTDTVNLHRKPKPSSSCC
UniProt Q9NW64: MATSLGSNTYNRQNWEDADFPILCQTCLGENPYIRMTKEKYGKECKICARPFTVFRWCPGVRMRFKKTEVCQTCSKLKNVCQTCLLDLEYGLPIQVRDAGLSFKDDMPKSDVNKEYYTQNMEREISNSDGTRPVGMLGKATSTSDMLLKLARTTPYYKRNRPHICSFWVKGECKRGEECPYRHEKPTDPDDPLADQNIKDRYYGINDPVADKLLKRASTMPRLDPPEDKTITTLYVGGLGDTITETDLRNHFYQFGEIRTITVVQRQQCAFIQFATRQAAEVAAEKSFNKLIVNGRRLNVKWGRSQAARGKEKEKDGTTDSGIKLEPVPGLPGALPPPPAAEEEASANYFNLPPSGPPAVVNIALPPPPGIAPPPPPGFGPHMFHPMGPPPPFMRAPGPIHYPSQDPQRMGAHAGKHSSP

Compound: CCCc1cc(C)[nH]c(=O)c1CNC(=O)c1cc(-c2ccnc(N3CCN(C)CC3)c2)cc2c1cnn2C(C)C
Assay: log2 fold change, soluble protein after heating vs DMSO (PISA); higher = thermal stabilisation; K562 cells, 10 uM, 30 min; active = over 0.2 and 3.5 SD of the protein, either way, in both replicates (recomputed)
Method in brief: (§1)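 K562 cells at 2×10^6 cells/mL were given 10 μM compound for 30 min. Aliquots then went through 3 min of heating across 48°C-58°C, were pooled, and were extracted in PBS with 0.5% NP-40 at 4°C, and the supernatant after 21,000xg for 90 min was quantified by TMTpro 16plex LC-MS/MS with channel sums equalised. Thermal stability relative to control samples, from duplicates, is given as log2 fold change.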

log2 fold change, inactive:
RAD1 (UniProt O60671) -0.012
RAB6D (UniProt Q53S08) -0.006
RALGAPA1 isoform 6 (UniProt Q6GYQ0) -0.043
RAB5C isoform 2 (UniProt P51148) -0.017
RAN (UniProt P62826) -0.04
RBBP4 (UniProt Q09028) -0.049
RB1CC1 (UniProt Q8TDY2) 0.147
RANBP1 (UniProt P43487) 0.024
RAB31 (UniProt Q13636) 0.001
RBM27 (UniProt Q9P2N5) 0.041

Compound: CCN(CC)Cc1ccc2cc(COC(=O)Nc3ccc(C(=O)NO)cc3)ccc2c1 [givinostat]
Assay: as above
Method in brief: as §1

log2 fold change, inactive:
RALB isoform 2 (UniProt P11234) -0.002
RACK1 (UniProt P63244) -0.046
RAB11A (UniProt P62491) 0.036
RAB3A (UniProt P20336) -0.01
RABGGTB (UniProt P53611) -0.028
RAP1A (UniProt P62834) -0.02
RAP1GDS1 isoform 5 (UniProt P52306) 0.047
RANBP9 (UniProt Q96S59) -0.017
RAB8B (UniProt Q92930) -0.014
RAB9A (UniProt P51151) 0.054
RAPGEF2, A0A2R8YGD3 -0.022
RBM22 (UniProt Q9NW64) 0.018
RACK1 (UniProt D6RF23) -0.063

A section from further up, for reference:
log2 fold change, inactive:
RAB8B (UniProt Q92930) -0.014
RAB9A (UniProt P51151) 0.054
